Measurements reported in PubChem BioAssay AID1508597 (Cure First, 2020).

- Test: 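Knock-downs altering ovarian cancer cell survival with or without PARP inhibitor rucaparib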 (primary screen)
- Cell system: human ovarian carcinoma lines grown from tumours: OCI-P5x (papillary serous) and OCI-C5x (clear cell)
- Reagent: siRNA pool against human genes, 1.25 pmol siRNA per well
- Timing: 72 h or 96 h, depending on the cell culture
- Challenge: rucaparib 20 µM (about IC30) or vehicle, present until read-out
- Rucaparib or vehicle: Rucaparib
- Cell line: OCI-C5x (clear cell)
- Measured: 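ATP luminescence measured at 72 or 96 h according to the culture, then normalised and expressed as percent viability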
- Reading the numbers: viability, normalised: higher = more viable cells remaining
- Active means: 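a well counts as a hit if its normalised viability is under 80 percent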
- Meaning of the calls: active = viability under 80%; inactive = viability 80% or more
Shown is an unselected part of the about 2,100 reagents, in one setting of the screen. 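Calls flag viability under 80% in either arm, not effects specific to rucaparib; the reference for percent is not stated.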 A number with no mark means an inactive call. Some reagents were tested in more than one well and are listed for each. Reagent sequences are not shown. Not given: the 100% reference.

RIGI (RNA sensor RIG-I), technical replicate 1 scored viability, normalised (%) = 69.4 (active). RIGI (RNA sensor RIG-I), technical replicate 2 showed viability, normalised (%) = 47.9 (active). RIGI (RNA sensor RIG-I), technical replicate 3 showed viability, normalised (%) = 55.2 (active). With CLDN5 (claudin 5), technical replicate 1, the values are viability, normalised (%) = 60.6 (active). For CLDN5 (claudin 5), technical replicate 2 the deposit lists viability, normalised (%) = 40.9 (active). With CLDN5 (claudin 5), technical replicate 3 the deposit lists viability, normalised (%) = 62.7 (active).

PARP12 (poly(ADP-ribose) polymerase family member 12), technical replicate 1 scored viability, normalised (%) = 38 (active). For PARP12 (poly(ADP-ribose) polymerase family member 12), technical replicate 2 the deposit lists viability, normalised (%) = 31.6 (active). With PARP12 (poly(ADP-ribose) polymerase family member 12), technical replicate 3 the deposit lists viability, normalised (%) = 40.7 (active). POLA1 (DNA polymerase alpha 1, catalytic subunit), technical replicate 1 gave viability, normalised (%) = 51.9 (active). POLA1 (DNA polymerase alpha 1, catalytic subunit), technical replicate 1 scored viability, normalised (%) = 75.3 (active). With POLA1 (DNA polymerase alpha 1, catalytic subunit), technical replicate 2 the deposit lists viability, normalised (%) = 68.7 (active).

For POLA1 (DNA polymerase alpha 1, catalytic subunit), technical replicate 2, the values are viability, normalised (%) = 73.4 (active). With POLA1 (DNA polymerase alpha 1, catalytic subunit), technical replicate 3, the entry reads viability, normalised (%) = 56.6 (active). POLA1 (DNA polymerase alpha 1, catalytic subunit), technical replicate 3 scored viability, normalised (%) = 68 (active). SCMH1 (Scm polycomb group protein homolog 1), technical replicate 1 showed viability, normalised (%) = 40.5 (active). For SCMH1 (Scm polycomb group protein homolog 1), technical replicate 2, the values are viability, normalised (%) = 53.8 (active). SCMH1 (Scm polycomb group protein homolog 1), technical replicate 3 showed viability, normalised (%) = 42.1 (active).

TAF6L (TATA-box binding protein associated factor 6 like), technical replicate 1 gave viability, normalised (%) = 66.6 (active). TAF6L (TATA-box binding protein associated factor 6 like), technical replicate 2 gave viability, normalised (%) = 80.8. TAF6L (TATA-box binding protein associated factor 6 like), technical replicate 3 showed viability, normalised (%) = 50.8 (active).
